PubChem BioAssay AID1259308 – NCATS – 2017

Aim: 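Genes whose loss raises luciferase production in HEK293 cells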 (primary screen)
Cells: human HEK293 embryonic kidney cells stably expressing firefly luciferase (HEK-CMV-Luc2-Hygro)
Reagents: single siRNA against human genes, 0.8 pmol siRNA per well
Timing: 72 h
Detection: 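Reporter luminescence and viable-cell signal on separate replicate plates, given as percent of non-targeting control and median/MAD z-scores, plus per-cell luciferase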
Direction: total luciferase, z-score and total luciferase, % of control: higher = more reporter protein produced; luciferase per cell, z-score: higher = more reporter output per viable cell
Rule for the call: 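Active when the median/MAD z-score for overall luciferase is greater than 3; a gene was taken forward for validation with new siRNAs if at least two of its three siRNAs passed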
Meaning of the calls: active = raised luciferase; inactive = no rise
The deposit covers about 59,000 reagents; this is an unselected part. About 1,510 of them (2.6%) count as active. 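Calls use total luciferase alone and ignore viability, so some active siRNAs may act by altering cell number.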 Not all columns of the deposit are shown.

| gene symbol | PubChem SID | total luciferase, z-score | total luciferase, % of control | luciferase per cell, z-score | Outcome |
| --- | --- | --- | --- | --- | --- |
| AGGF1 (GeneID 55109) | SID160742960 | -1.19 | 58.2 | -0.878 | inactive |
| AGGF1 (GeneID 55109) | SID160742962 | -0.151 | 78.9 | -0.374 | inactive |
| AGGF1 (GeneID 55109) | SID160742963 | -1.35 | 55.1 | -0.423 | inactive |
| LOC732272 (retired record) (GeneID 732272) | SID160727764 | 0.0239 | 82.4 | -0.0518 | inactive |
| LOC732272 (retired record) (GeneID 732272) | SID160774405 | -1.58 | 50.5 | -0.927 | inactive |
| LOC732272 (retired record) (GeneID 732272) | SID160774406 | -1.43 | 53.5 | -0.512 | inactive |
| CARMIL2 (GeneID 146206) | SID160758333 | 1.45 | 111 | 1.81 | inactive |
| CARMIL2 (GeneID 146206) | SID160758334 | -0.186 | 78.2 | 0.379 | inactive |
| CARMIL2 (GeneID 146206) | SID160758335 | 0.879 | 99.4 | 1.01 | inactive |
| PRKCQ-AS1 (GeneID 439949) | SID160767646 | -0.142 | 79.1 | -0.41 | inactive |
| PRKCQ-AS1 (GeneID 439949) | SID160767647 | -0.984 | 62.3 | -1.17 | inactive |
| PRKCQ-AS1 (GeneID 439949) | SID160767648 | -0.112 | 79.7 | 0.189 | inactive |

Reformatted: entries from further up
gene symbol,PubChem SID,"total luciferase, z-score","total luciferase, % of control","luciferase per cell, z-score",Outcome
CARMIL2 (GeneID 146206),SID160758334,-0.186,78.2,0.379,inactive
CARMIL2 (GeneID 146206),SID160758335,0.879,99.4,1.01,inactive

Next records:
| gene symbol | PubChem SID | total luciferase, z-score | total luciferase, % of control | luciferase per cell, z-score | Outcome |
| --- | --- | --- | --- | --- | --- |
| GALNT12 (GeneID 79695) | SID160749213 | -1.72 | 47.6 | 0.115 | inactive |
| GALNT12 (GeneID 79695) | SID160749214 | -0.0693 | 80.5 | -0.5 | inactive |
| GALNT12 (GeneID 79695) | SID160749215 | 3.3 | 148 | 2.52 | active |
| PCDHB5 (GeneID 26167) | SID160730922 | 0.14 | 84.7 | 0.167 | inactive |
| PCDHB5 (GeneID 26167) | SID160737738 | 0.57 | 93.2 | 0.554 | inactive |
| PCDHB5 (GeneID 26167) | SID160737739 | -1.45 | 53.1 | -0.728 | inactive |
| SLMAP (GeneID 7871) | SID160719437 | 1.84 | 119 | 0.999 | inactive |
| SLMAP (GeneID 7871) | SID160719438 | 2.19 | 126 | 1.72 | inactive |
| SLMAP (GeneID 7871) | SID160719439 | -0.546 | 71 | -0.303 | inactive |
| RNF175 (GeneID 285533) | SID160763642 | -0.401 | 73.9 | 0.122 | inactive |
| RNF175 (GeneID 285533) | SID160763643 | -1.78 | 46.4 | -1.27 | inactive |
| RNF175 (GeneID 285533) | SID160763645 | 0.311 | 88.1 | 0.269 | inactive |
